{"sequences": {"note": "Chains of the proteins cited; added tags and fusions are not shown. Lines headed by an entry give the natural chain unless they say otherwise; changes in a name come on top.", "UniProt P18054": "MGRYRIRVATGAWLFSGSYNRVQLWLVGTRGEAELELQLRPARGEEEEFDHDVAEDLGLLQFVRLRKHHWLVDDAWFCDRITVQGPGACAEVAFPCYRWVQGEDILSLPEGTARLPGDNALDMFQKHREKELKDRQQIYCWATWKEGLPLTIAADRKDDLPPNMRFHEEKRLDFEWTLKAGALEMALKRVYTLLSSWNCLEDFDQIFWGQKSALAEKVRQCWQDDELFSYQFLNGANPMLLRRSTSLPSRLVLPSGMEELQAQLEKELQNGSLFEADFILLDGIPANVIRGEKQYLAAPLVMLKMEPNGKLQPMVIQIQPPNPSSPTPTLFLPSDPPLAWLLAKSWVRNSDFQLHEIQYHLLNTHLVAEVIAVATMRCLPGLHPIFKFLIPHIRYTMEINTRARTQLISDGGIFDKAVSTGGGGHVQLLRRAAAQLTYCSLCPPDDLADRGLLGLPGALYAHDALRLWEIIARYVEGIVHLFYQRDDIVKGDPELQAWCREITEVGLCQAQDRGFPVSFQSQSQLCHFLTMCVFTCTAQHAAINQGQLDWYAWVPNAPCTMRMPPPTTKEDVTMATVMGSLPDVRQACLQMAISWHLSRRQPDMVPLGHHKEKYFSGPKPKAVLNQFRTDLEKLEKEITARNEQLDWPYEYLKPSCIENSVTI"}, "source": "PubChem BioAssay AID1671190", "about": "(National Center for Advancing Translational Sciences (NCATS), 2021)", "note": "Values joined by “and” are separate entries in the source; they are usually repeats but may differ in a detail not shown here. Identical values can stand only once. The campaign covered roughly 580,000 compounds. About 6,100 (1.1%) were called active. The shares of active, inactive and inconclusive entries below differ from those in the screen. The call rests on the fitted dose curve; in most records, active means well fitted inhibition curve with a large enough effect; inconclusive means small, poorly fitted or top-dose-only effect, or another doubt; inactive means no such curve, though single readings can be large or run the other way. Potencies of inconclusive entries are doubtful fits and often do not repeat. Potency means the concentration at half of the fitted maximal effect.", "data": [{"molecular_target": "Polyunsaturated fatty acid lipoxygenase ALOX12 (Homo sapiens) (UniProt P18054)", "assay": "Primary qHTS assay for inhibitors of human arachidonate 12S-lipoxygenase (ALOX12): Round 2", "conditions": "purified 12hLO, xylenol orange hydroperoxide absorbance; series mostly up to 108 µM", "method_in_brief": "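Hydroperoxide product was detected by ferrous iron/xylenol orange as the 573 to 405 nm absorbance ratio. Arachidonic acid at 40 uM (final) was turned over for 30 min at room temperature by 150 nM human 12hLO, pH 7.0 Hepes buffer, after 15 min compound preincubation.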", "values": [{"compound": "O=C(NN1C(=O)/C(=C/c2ccc(O)c(O)c2)SC1=S)c1ccccc1", "Potency": "inconclusive: 112 µM [inhibitor, single point]"}, {"compound": "CC(=O)Nc1nc(SCCCc2ccccc2)n[nH]1", "Potency": "inconclusive: 25.1 µM [inhibitor, single point]"}, {"compound": "CN(C/C=C/c1ccccc1)C(=O)c1ccc(C2CCCNC2)cc1", "note": "(stereo not drawn)", "Potency": "inconclusive: 3.55 µM [inhibitor, full curve, poor fit]"}, {"compound": "Cc1cccc(S(=O)(=O)N(CC(=O)Nc2ccccc2C)Cc2ccco2)c1", "Potency": "inactive"}, {"compound": "CC(=O)Nc1ccc(Cl)c(-c2nc3ncccc3o2)c1", "Potency": "inconclusive: 44.7 µM [inhibitor, partial curve, poor fit]"}, {"compound": "COc1ccc(-c2ccc3c(c2)[C@@H]2C[C@H]4[C@@H](C(=O)N2CC3)[C@H](C)ON4C)cc1", "Potency": "inconclusive: 112 µM [inhibitor, single point]"}, {"compound": "CCCS(=O)(=O)NC(C)C(=O)O", "note": "(stereo not drawn)", "Potency": "inactive"}, {"compound": "COc1cccc(C2C=C(Nc3ccccc3)C(=O)N2c2ccccc2)c1", "note": "(stereo not drawn)", "Potency": "inconclusive: 28.2 µM [inhibitor, partial curve, poor fit]"}, {"compound": "Brc1cccc(CNCc2ccncc2)c1", "Potency": "inconclusive: 35.5 µM [inhibitor, partial curve, poor fit]"}, {"compound": "CC(C)c1ccccc1NC(=O)COC(=O)c1ccc2ccccc2n1", "Potency": "inactive"}, {"compound": "COCCN1C(=O)c2ccccc2C(C(=O)NCCCc2ccccc2)C12CCCC2", "note": "(stereo not drawn)", "Potency": "inactive"}, {"compound": "CSc1oc(-c2ccccc2)nc1S(=O)(=O)c1ccc(C)cc1", "Potency": "inactive"}, {"compound": "Cc1cc2nn(CC(=O)N3CCC(C)CC3)c(=O)n2c(N2CCc3ccccc3C2)n1", "Potency": "inconclusive: 50.1 µM [inhibitor, partial curve, poor fit]"}, {"compound": "Cc1cc(Cn2nnc(-c3ccc(Br)cc3)n2)cc(C)c1O", "Potency": "inconclusive: 100 µM [inhibitor, single point]"}, {"compound": "Cc1oc(-c2ccccc2)nc1C(=O)OCC(=O)NCc1ccc(F)cc1", "Potency": "inconclusive: 10 µM [inhibitor, full curve, poor fit] and inconclusive: 100 µM [inhibitor, partial curve, poor fit]"}, {"compound": "Cc1nn(-c2ccccc2)c(C)c1NC(=O)COC(=O)C1CC(=O)N(CCc2ccccc2)C1", "note": "(stereo not drawn)", "Potency": "inconclusive: 50.1 µM [inhibitor, partial curve, poor fit]"}, {"compound": "O=C(Cc1cccs1)N1CCC(c2nc3c(nnn3Cc3ccccc3Cl)c(=O)[nH]2)CC1", "Potency": "inconclusive: 89.1 µM [inhibitor, partial curve, poor fit]"}, {"compound": "O=Cc1c(-c2ccc(Cl)cc2)oc2ccc(O)cc12", "Potency": "inconclusive: 44.7 µM [inhibitor, single point]"}]}]}
